Measurements from PMC10693566.
Results are given in words; binding and its absence hold for the method and conditions named. Some binding calls cover weakened binding; strength is not graded here.

Chains of the proteins cited; added tags and fusions are not shown. Residues count along the entry.
UniProt Q96CB9, residues 26-384: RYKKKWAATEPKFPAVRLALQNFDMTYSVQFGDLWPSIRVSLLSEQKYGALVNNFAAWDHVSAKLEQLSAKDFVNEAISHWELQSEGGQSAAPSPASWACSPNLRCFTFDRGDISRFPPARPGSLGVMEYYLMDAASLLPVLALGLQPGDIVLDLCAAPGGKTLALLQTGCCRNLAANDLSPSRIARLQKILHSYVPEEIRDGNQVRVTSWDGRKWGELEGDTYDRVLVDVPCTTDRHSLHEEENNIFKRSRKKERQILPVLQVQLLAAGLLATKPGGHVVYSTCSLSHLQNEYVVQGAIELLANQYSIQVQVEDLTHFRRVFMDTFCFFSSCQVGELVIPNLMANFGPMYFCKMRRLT

Biological target: T1, MTERF4 (human (endogenous in HEK293-6E)) (UniProt Q7Z6M4)
T1 sequence: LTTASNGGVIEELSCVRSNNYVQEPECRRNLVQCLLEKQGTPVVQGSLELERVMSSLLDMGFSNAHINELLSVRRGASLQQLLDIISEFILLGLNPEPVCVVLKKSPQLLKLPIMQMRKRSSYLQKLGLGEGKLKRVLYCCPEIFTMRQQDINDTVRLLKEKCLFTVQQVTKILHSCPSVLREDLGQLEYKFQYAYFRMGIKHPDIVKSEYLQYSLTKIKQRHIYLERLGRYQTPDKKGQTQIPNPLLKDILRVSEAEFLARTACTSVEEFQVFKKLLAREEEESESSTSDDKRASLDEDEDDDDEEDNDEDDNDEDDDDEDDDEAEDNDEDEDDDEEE
Experiment: cryo-EM structure; native mtLSU assembly intermediate 1 isolated from HEK293-6E mitochondria in the presence of GMPPNP (20 mM HEPES-KOH pH 7.6, 100 mM KCl, 40 mM MgCl2, 1 mM DTT); single particle reconstruction at 3.03 Å

## NSUN4 (from UniProt Q96CB9 26-384)
  binding: binds
